The values that follow come from the supplement of paper PMC11006884.

Amino acid sequences for entries named in this document (tags omitted). A change or cut given only in a name is not applied to a line headed by its entry.
UniProt P49903: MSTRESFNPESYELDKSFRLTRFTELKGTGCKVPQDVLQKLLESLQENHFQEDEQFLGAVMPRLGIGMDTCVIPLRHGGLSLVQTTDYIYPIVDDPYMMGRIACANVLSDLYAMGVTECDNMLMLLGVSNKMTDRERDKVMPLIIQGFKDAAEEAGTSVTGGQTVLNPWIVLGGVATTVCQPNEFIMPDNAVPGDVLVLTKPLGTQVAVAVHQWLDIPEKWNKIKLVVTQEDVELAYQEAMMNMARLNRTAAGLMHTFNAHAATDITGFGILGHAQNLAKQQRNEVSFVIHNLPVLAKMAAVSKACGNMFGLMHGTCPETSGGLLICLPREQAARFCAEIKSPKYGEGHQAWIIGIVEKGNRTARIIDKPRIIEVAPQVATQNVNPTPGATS
UniProt P49840: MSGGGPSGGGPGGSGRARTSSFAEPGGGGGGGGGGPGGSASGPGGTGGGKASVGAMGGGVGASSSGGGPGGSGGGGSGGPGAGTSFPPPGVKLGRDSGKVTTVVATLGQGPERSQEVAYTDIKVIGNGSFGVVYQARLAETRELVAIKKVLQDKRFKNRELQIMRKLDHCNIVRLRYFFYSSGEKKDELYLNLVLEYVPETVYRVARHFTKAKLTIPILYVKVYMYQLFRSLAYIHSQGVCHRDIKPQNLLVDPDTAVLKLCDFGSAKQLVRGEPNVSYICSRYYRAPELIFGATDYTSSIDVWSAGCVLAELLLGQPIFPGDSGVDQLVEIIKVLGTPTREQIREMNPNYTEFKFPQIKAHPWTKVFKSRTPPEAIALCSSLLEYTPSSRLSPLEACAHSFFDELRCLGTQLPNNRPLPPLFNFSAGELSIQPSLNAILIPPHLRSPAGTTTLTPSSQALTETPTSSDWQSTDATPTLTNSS
UniProt P50991: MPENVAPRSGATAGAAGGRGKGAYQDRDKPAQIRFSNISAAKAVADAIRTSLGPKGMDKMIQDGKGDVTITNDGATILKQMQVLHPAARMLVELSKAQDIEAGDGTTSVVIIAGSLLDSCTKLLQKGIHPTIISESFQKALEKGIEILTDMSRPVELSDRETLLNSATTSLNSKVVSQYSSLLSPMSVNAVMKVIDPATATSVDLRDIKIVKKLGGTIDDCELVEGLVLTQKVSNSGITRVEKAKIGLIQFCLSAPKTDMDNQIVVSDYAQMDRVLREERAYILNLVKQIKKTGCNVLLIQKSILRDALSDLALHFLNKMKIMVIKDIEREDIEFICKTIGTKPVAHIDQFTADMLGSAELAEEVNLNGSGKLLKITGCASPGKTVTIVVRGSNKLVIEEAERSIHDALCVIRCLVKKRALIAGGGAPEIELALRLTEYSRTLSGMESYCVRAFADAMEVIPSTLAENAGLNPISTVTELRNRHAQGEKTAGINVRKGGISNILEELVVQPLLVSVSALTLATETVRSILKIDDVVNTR
UniProt P49815: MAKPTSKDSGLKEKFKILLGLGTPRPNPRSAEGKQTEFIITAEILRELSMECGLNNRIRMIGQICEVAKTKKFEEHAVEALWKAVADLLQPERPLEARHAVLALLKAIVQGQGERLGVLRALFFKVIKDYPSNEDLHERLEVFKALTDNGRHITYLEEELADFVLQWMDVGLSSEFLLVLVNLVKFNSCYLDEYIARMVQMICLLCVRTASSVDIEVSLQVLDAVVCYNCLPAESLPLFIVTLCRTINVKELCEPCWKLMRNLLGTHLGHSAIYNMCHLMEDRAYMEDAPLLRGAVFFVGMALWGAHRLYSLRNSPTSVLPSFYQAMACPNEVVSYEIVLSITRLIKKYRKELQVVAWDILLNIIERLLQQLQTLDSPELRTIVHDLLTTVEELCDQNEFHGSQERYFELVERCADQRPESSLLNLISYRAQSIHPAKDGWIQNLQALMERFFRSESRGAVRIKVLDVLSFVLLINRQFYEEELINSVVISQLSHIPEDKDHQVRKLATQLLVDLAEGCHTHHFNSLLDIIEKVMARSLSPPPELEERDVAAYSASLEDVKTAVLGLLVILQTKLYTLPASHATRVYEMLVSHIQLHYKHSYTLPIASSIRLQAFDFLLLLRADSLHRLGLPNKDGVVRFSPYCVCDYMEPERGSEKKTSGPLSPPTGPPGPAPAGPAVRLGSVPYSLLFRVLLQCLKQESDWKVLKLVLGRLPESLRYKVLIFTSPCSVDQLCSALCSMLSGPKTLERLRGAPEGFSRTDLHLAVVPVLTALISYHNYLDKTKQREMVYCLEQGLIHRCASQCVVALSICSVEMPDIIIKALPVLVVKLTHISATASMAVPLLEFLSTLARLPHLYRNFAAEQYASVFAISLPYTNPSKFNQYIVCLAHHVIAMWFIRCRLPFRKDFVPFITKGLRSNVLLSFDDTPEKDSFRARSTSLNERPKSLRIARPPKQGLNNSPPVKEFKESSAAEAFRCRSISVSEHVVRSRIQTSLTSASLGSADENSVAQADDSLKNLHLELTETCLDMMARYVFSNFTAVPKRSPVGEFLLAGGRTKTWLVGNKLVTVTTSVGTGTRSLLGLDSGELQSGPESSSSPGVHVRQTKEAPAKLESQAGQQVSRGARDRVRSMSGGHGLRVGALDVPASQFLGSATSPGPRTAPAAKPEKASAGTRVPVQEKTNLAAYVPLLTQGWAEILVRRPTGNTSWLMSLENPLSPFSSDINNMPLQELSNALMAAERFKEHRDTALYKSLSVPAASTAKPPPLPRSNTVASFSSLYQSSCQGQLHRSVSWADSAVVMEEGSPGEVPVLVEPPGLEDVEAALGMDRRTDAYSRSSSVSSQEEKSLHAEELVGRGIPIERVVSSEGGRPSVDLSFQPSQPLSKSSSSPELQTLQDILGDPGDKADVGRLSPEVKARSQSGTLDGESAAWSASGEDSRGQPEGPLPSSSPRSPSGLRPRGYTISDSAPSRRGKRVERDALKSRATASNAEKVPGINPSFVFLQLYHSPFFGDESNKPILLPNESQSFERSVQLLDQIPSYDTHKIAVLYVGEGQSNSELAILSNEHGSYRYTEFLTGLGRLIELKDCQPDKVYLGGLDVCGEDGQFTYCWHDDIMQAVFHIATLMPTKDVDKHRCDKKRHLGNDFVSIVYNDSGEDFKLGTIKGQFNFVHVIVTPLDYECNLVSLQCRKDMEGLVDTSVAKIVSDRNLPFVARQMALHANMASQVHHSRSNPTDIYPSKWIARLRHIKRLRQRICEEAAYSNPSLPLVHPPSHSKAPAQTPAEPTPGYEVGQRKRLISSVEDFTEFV
UniProt P49756, whole entry, looked up: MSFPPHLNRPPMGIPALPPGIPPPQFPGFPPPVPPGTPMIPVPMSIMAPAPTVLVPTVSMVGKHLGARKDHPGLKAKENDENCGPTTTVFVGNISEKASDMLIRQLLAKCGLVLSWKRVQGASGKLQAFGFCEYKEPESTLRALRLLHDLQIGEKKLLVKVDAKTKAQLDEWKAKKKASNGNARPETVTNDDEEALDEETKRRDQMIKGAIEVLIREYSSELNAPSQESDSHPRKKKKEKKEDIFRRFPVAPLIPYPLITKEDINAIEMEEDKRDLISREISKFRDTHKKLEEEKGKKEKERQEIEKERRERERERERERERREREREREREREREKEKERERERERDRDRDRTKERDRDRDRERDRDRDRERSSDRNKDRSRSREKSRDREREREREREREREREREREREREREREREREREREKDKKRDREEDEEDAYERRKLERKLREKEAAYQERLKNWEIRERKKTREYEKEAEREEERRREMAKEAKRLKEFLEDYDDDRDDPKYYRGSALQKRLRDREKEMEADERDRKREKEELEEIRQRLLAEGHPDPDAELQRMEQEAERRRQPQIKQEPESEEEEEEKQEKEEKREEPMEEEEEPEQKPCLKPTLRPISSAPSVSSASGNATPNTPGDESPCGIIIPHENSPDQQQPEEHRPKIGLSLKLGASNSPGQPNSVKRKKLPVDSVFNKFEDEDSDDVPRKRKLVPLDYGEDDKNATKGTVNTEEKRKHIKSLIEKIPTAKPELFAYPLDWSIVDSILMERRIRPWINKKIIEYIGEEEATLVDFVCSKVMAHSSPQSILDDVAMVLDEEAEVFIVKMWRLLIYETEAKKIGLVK
UniProt P46940, whole entry, looked up: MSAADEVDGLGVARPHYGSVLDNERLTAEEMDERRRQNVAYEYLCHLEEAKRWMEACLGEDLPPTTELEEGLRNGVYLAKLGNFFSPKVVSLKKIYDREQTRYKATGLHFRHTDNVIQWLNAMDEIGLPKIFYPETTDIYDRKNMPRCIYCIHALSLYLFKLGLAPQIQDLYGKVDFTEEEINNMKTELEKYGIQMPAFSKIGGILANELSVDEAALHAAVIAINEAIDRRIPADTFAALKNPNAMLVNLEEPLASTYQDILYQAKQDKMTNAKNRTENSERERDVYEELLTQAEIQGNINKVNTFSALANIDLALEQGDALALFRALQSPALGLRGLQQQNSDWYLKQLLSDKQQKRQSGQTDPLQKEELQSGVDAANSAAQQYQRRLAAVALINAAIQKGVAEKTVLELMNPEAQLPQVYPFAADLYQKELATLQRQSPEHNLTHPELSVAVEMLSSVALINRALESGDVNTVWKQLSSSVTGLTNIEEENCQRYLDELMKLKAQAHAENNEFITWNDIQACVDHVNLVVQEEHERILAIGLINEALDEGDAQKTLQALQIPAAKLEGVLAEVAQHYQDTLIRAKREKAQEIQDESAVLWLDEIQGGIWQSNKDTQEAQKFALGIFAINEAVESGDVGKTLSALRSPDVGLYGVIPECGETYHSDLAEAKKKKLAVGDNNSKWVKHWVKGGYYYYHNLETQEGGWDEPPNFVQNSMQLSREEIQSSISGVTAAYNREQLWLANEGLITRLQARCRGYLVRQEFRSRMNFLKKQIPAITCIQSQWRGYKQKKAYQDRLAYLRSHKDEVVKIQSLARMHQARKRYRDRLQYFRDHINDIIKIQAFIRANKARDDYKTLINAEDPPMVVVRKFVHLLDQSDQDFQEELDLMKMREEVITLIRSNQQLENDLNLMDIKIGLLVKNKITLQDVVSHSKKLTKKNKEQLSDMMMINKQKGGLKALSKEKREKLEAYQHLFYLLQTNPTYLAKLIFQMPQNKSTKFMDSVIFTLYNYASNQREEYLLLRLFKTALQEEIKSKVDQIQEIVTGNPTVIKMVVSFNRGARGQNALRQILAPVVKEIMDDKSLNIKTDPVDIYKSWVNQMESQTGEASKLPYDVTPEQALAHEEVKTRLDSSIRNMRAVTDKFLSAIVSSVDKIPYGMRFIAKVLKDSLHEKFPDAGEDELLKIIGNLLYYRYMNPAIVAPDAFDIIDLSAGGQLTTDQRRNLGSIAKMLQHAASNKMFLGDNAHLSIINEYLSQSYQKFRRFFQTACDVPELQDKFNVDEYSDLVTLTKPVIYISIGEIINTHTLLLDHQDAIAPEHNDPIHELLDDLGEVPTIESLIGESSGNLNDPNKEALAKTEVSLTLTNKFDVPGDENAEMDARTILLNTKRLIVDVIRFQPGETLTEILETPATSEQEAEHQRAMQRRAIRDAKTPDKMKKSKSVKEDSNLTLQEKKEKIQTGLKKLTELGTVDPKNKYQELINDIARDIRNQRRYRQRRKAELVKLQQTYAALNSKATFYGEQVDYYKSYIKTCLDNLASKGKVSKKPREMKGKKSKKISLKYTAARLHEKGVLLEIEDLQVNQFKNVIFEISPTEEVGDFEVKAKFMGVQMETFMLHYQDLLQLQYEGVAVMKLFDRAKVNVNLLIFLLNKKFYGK
UniProt P48147: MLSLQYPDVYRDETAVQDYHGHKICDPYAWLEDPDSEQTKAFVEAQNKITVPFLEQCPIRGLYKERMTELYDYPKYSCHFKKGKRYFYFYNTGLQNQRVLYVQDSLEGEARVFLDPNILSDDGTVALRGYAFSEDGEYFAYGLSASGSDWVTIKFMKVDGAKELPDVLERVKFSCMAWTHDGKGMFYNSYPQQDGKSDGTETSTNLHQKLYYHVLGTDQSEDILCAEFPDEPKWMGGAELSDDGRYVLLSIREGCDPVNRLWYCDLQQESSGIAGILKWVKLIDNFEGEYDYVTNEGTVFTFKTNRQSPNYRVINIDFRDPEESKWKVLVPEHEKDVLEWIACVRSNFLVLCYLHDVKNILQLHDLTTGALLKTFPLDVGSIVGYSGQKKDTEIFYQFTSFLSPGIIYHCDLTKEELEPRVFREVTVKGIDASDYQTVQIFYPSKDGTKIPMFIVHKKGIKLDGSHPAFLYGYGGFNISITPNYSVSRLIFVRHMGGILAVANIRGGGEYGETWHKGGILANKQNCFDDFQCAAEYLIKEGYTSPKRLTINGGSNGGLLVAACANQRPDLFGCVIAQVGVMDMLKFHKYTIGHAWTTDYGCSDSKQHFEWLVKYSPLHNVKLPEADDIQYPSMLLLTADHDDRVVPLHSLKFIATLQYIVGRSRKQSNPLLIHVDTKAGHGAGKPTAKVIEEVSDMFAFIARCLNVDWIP

The entries are a selection whose mix differs from that of the whole data set.

Compound in this test: COC(=O)C#Cc1ccccc1 [methyl 3-phenylpropiolate]
Put plainly: log2 ratio of iodoacetamide-alkyne labeling of the cysteine site, DMSO over compound (competition); higher = stronger covalent engagement of the cysteine by the compound, active = 1 or more. The conditions noted are these: 500 µM; treatment time 1 h; system: HEK293T cell lysate. An outline of the steps: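 Electrophile (500 µM) or vehicle was added to HEK293T lysate (2 mg/mL) for 1 h at ambient temperature before iodoacetamide alkyne labelling (1 h) and click coupling to sCIP-TMT reagents. After pooling, overnight trypsin digestion at 37 °C, streptavidin enrichment and acid elution, peptides were measured by Orbitrap Eclipse LC-MS/MS with FAIMS and quantified in FragPipe. Each cysteine's log2 competition ratio compares mean control-channel with mean compound-channel reporter intensity, control over compound. Data came from duplicate channels across three replicates, excluding cysteines quantified in only one replicate.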
For the target SEPHS1 C31 (UniProt P49903), the “log2 ratio of iodoacetamide-alkyne labeling” value (shortened to “log2 ratio”) was inactive: 0.175.
The same measure for ALDH7A1 C522 (UniProt P49419): inactive: 0.395.
With NSF C599 (UniProt P46459) the figure was inactive: 0.286; with UniProt P48730_C255, inactive: 0.403; with YLPM1 C1967 (UniProt P49750), inactive: 0.578.
With UniProt P49840_C380 the figure was inactive: 0.137; with CCT4 C120 (UniProt P50991), inactive: 0.0913; with GALK1 C322 (UniProt P51570), inactive: -0.00419.
Regarding TSC2 C414 (UniProt P49815), the “log2 ratio” value was inactive: 0.0259.
The same measure for MKI67 C2706 (UniProt P46013): inactive: 0.454.
The same measure for RBM25 C132 (UniProt P49756): inactive: 0.119.
With IQGAP1 C1534 (UniProt P46940) the figure was inactive: -0.0904; with PCYT1A C5 (UniProt P49585), inactive: 0.879; with CCT4 C450 (UniProt P50991), inactive: 0.277.
For RANBP2 C1196 (UniProt P49792), the “log2 ratio” value is inactive: 0.147.
With EMD C147 (UniProt P50402) the figure was inactive: 0.403; with FASN C1186 (UniProt P49327), inactive: -0.0549.
The same measure for CCT4 C252 (UniProt P50991): inactive: -0.0169; for RBM25 C110 (UniProt P49756): inactive: 0.329.
With RAB28 C31 (UniProt P51157) the figure was inactive: 0.181; with CCT5 C377 (UniProt P48643), inactive: 0.18; with PREP C57 (UniProt P48147), inactive: 0.139.
